Some of these results come from one statement about several compounds together.
System: NF-kB
Test: NF-kB luciferase reporter activity in LPS-stimulated U937-kBluc cells
Format: cell-based, human
Details: 2 mM, LPS-treated U937-kBluc cells
Experimental: U937-kBluc cells were cultured in a 96 well plate (2×10^4 cells in 100 μl in each well) and stimulated with 0.3 μg/ml LPS (lipopolysaccaride; Sigma Aldrich). After 6 hours, cells were collected and luciferase activity determined using the luclite reagent (Perkin Elmer UK, Beaconsfield, UK) and a Packard TopCount (Perkin Elmer), as described by the manufacturer. To determine the effect of SFZ and analogues, various concentrations of each compound or an equivalent amount of DMSO as a solvent control were added 1 hour prior to addition of LPS. Each determination was made in triplicate. A cell line containing an NF-kB reporter construct was used to determine the effects of SFZ analogues on NF-kB activity. Cells were treated with LPS to induce NF-kB activity in the presence or absence of each compound, or DMSO as a solvent control, and luciferase activity analysed as a measure of NF-kB dependent transcription (FIG. 1). […] U937-kBluc cells were treated with LPS to activate NF-kB in the presence of increasing concentrations of SFZ, derivatives (3a-f), or DMSO as a solvent control. For each concentration of compound, the percentage inhibition of luciferase activity relative to cells treated with an equivalent amount of DMSO was calculated. (A) Representative dose response experiment (♦, 3a; ▪, SFZ). Each data point is the mean of triplicate samples (±SEM). (B) Detailed dose response assays were performed for compounds which gave >50% inhibition at 2 mM. The mean IC50 value (±SD) for inhibition of LPS-induced NF-kB activity is derived from 2 independent experiments, each performed in triplicate.

Row | SMILES | inhibition of NF-kB activity
1 | COc1ccc(CNS(=O)(=O)c2ccc(/N=N/c3ccc(O)cc3)cc2)cc1 [Compound 3b] | < 50%
2 | Nc1ccc(O)c(C(=O)O)c1 [Compound 5-ASA, 5-amino salicylic acid, reference compound] | < 50%
3 | Nc1ccc(S(=O)(=O)Nc2ccccn2)cc1 [SPY, sulfapyridine, reference compound] | < 50%
